Source: PubChem BioAssay AID651768 (National Center for Advancing Translational Sciences (NCATS), 2012)
Several values for one entry are separate records, joined by “and”; a condition that tells them apart may be missing. Identical values can stand only once. Hit rate of the full screen: of about 360,000 compounds, about 1,700 (0.47%) were called active. This list was built around the results that the source calls inconclusive (neither active nor inactive); the mix of calls is not that of the screen. Calls come from the whole dose curve; as a rule, active = well fitted inhibition curve with a large enough effect; inconclusive = small, poorly fitted or top-dose-only effect; inactive = no such curve, though single readings can be large or run the other way. A potency beside an inconclusive call is a rough fit, not a confirmed value.
% is set by controls: 0 for no effect and ±100 for the full control effect; potency is the fitted concentration of half-maximal effect.
Note: nearly all actives have a fitted effect of over 55% in size.

Amino acid sequences for entries named in this document (tags omitted).
UniProt Q14191, whole entry, looked up: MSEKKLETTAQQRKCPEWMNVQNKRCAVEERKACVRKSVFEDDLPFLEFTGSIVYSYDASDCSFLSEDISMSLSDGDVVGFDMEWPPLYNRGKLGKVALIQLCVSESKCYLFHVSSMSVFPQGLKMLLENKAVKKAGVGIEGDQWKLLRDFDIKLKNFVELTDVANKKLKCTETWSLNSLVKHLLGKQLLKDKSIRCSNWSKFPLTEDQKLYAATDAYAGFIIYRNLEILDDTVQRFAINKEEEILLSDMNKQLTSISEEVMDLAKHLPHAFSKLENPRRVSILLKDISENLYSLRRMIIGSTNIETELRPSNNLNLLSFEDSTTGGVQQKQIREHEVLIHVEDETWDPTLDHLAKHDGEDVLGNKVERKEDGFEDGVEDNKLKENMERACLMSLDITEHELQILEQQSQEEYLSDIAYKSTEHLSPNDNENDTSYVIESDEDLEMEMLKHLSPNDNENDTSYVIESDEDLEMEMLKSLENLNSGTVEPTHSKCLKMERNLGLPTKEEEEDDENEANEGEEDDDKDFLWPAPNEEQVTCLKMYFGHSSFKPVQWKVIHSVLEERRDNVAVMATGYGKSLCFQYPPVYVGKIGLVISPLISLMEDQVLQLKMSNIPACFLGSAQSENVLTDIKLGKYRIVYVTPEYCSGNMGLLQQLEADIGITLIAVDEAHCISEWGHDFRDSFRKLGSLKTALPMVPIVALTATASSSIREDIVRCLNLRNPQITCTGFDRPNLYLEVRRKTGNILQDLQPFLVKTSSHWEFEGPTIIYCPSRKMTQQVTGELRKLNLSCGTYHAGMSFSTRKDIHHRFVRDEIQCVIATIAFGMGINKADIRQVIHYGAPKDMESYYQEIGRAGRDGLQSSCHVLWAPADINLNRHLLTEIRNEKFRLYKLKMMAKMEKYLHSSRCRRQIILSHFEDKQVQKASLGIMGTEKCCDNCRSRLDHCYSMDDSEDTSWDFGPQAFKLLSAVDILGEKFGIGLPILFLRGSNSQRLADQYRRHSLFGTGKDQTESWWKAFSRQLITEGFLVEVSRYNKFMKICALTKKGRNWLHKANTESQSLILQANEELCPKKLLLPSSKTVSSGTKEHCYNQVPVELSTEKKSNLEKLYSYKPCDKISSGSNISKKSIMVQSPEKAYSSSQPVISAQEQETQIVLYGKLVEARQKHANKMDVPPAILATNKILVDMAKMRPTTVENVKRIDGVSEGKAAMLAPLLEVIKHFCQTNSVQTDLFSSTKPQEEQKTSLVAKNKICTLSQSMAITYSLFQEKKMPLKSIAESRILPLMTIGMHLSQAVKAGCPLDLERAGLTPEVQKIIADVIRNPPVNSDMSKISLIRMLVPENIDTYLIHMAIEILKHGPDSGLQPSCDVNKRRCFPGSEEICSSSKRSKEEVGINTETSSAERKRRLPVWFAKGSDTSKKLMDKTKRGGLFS

The molecules below were run against Bifunctional 3'-5' exonuclease/ATP-dependent helicase WRN (Homo sapiens) (UniProt Q14191) (assay: qHTS for Inhibitors of WRN Helicase). Details: WRN helicase unwinding, fluorescent forked duplex, kinetic; activity change, negative = inhibition: at 114 µM (top of the series) unless noted.
Summary of the method: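 Kinetic fluorescence helicase assay: unwinding of a quenched forked DNA duplex (100 nM final) with 2 mM ATP final raises red fluorescence (525/598 nm). Compounds sat 15 min at room temperature with 20 nM WRN beforehand.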
For `Cc1[nH]n(-c2ccccc2)c(=O)c1C(c1ccc(O)c([N+](=O)[O-])c1)c1c(C)[nH]n(-c2ccccc2)c1=O`, the Potency was inconclusive: 35.5 µM [inhibitor, partial curve].
`COc1ccc(N2CCN(C(=O)c3cn(Cc4ccccc4)nc3-c3cccnc3)CC2)cc1` was tested, and the “activity change, negative = inhibition” value was inactive: 4.93%.
With `CC1C=CC(C)C(C(=O)O)C1C(=O)O` (configuration not stated) the Potency was inconclusive: 15 µM [inhibitor, partial curve].
`Cc1sc2nc3c4ccccc4c(NCc4ccco4)nn3c(=O)c2c1C` was tested, and the Potency was inconclusive: 15.8 µM [inhibitor, partial curve].
In the case of `CCCCOc1ccc(C(O)(CCC)CCN2CCOCC2)cc1` (configuration not stated), the Potency is reported as inconclusive: 79.4 µM [inhibitor, partial curve].
With `O=C(Nc1ccc(Cl)cc1)C(Cl)C(=O)c1ccccc1` (configuration not stated) the “activity change, negative = inhibition” value was inactive: -16.9%.
In the case of `Cc1cc(C2(c3ccc(O)c(C)c3)OC(=O)c3ccccc32)ccc1O`, the “activity change, negative = inhibition” value is reported as inactive: -35.9% [at 57.1 µM].
In the case of `Cc1cccc(NS(=O)(=O)c2ccc(C)c(NS(=O)(=O)c3cccs3)c2)c1`, the Potency is reported as inconclusive: 63.1 µM [inhibitor, partial curve, poor fit].
For `O=C(O)c1ccc(S(=O)(=O)c2ccc([N+](=O)[O-])cc2[N+](=O)[O-])cc1`, the Potency was inconclusive: 2.99 µM [inhibitor, partial curve].
With `CN(C)C(=O)NC1c2ccccc2-c2ccccc21` the “activity change, negative = inhibition” value was inactive: 1.58%.
`CC1(C)Cc2c(C#N)c(N)n(-c3ccccc3)c(=S)c2CO1` was tested, and the “activity change, negative = inhibition” value was inactive: -0.325%.
In the case of `CCOC(=O)c1ccc(N2CCOCC2)c(NC(=O)COCC(=O)O)c1`, the Potency is reported as inconclusive: 39.8 µM [inhibitor, single point].
For `Cc1nc2ccccn2c1C(=O)NNC(=S)Nc1ccc(Cl)cc1`, the Potency was inconclusive: 12.6 µM [inhibitor, partial curve].
In the case of `CC(C)(C)CC(C)(C)SSc1n[nH]c(=S)s1`, the activity change, negative = inhibition is reported as inconclusive: -57.2% [inhibitor].
With `CCOCCCn1c(=NC(=O)c2cccs2)c(C#N)cc2c(=O)n3ccccc3nc21` the Potency was inconclusive: 3.55 µM [inhibitor, full curve, poor fit].
With `CC(C)CC(C(=O)Nc1oc(-c2ccco2)c(-c2ccco2)c1C#N)N1C(=O)c2ccccc2C1=O` (configuration not stated) the Potency was inconclusive: 11.2 µM [inhibitor, full curve, poor fit].
For `CC1=C/C(=C/N(C)c2ccccc2)C(=O)S1`, the Potency was inconclusive: 56.2 µM [inhibitor, partial curve].
`Cc1ccccc1NC(=S)NC(=O)/C=C/c1ccco1` was tested, and the Potency was active: 79.4 µM.
`COc1ccc(/C(O)=C2/C(=O)C(=O)N(CCN(C)C)C2c2ccc(F)cc2)cc1Cl` (configuration not stated) was tested, and the “activity change, negative = inhibition” value was inactive: 5.87%.
`CCN(CC(=O)Nc1ccc(NC(C)=O)cc1)C(=O)c1cccc(Oc2ccccc2)c1` was tested, and the “activity change, negative = inhibition” value was inactive: -2.33%.
With `COc1ccc(F)cc1S(=O)(=O)N1CCN(c2ccccn2)CC1` the Potency was inconclusive: 89.1 µM [inhibitor, single point].
`c1ccc2oc(-c3nn4c(Cn5cnc6ccccc65)nnc4s3)cc2c1` was tested, and the “activity change, negative = inhibition” value was inactive: -5.21%.
`O=C1/C(=C/c2ccco2)SC(=S)N1C1CCS(=O)(=O)C1` (configuration not stated) was tested, and the “activity change, negative = inhibition” value was inactive: -21%.
In the case of `C[C@H](NC(=O)c1cc2c(cn1)[nH]c1ccccc12)C(=O)O`, the Potency is reported as active: 35.5 µM.
For `COc1cc(/C=N/NC(=O)c2cc(O)cc(O)c2)ccc1OC(=O)c1ccccc1`, the Potency was active: 28.2 µM.
For `Cc1nc2ccccc2c(C)c1C(=O)c1ccccc1`, the “activity change, negative = inhibition” value was inactive: -3.75% [at 57.1 µM].
In the case of `Cc1nc(CCNC(=O)CC2C(=O)NCCN2CC(C)(C)C)nc2c1CCC2` (configuration not stated), the Potency is reported as inconclusive: 39.8 µM [inhibitor, full curve, poor fit].
`NC1=NOC(=O)C1C1CCCCC1` (configuration not stated) was tested, and the activity change, negative = inhibition was inconclusive: -59.1% [inhibitor].
`O=c1c(-c2c(O)cc(O)c3c(=O)cc(-c4ccc(O)cc4)oc23)c(-c2ccc(O)cc2)oc2cc(O)cc(O)c12` was tested, and the Potency was active: 56.2 µM.
In the case of `COCCN(C(=O)COC(=O)Cc1coc2cc3c(cc12)CCC3)c1c(N)n(Cc2ccccc2)c(=O)[nH]c1=O`, the Potency is reported as inconclusive: 7.94 µM [inhibitor, full curve, poor fit].
With `NS(=O)(=O)c1ccc(CCNC(=O)c2ccc3nccnc3c2)cc1` the Potency was active: 31.6 µM.
In the case of `O=C(c1cc2c(=O)n3ccccc3nc2s1)N1CCN(c2cccc(Cl)c2)CC1`, the Potency is reported as inconclusive: 89.1 µM [inhibitor, single point].
With `Nc1c(Cl)ncnc1N/N=C/c1ccc2ccccc2n1` the Potency was inconclusive: 35.5 µM [inhibitor, partial curve].
In the case of `CCOC(=O)C1=C(C)N=c2s/c(=C\c3ccc(OCC(=O)O)c(OC)c3)c(=O)n2C1c1ccc(OC)cc1` (configuration not stated), the “activity change, negative = inhibition” value is reported as inactive: -9.69%.
With `CC(C)C(=O)NC(c1ccccc1)c1cc([N+](=O)[O-])c2cccnc2c1O` (configuration not stated) the Potency was inconclusive: 22.4 µM [inhibitor, single point].
For `CCC(C)Sc1nc2c(c(=O)[nH]c(=O)n2C)n1CCc1ccccc1` (configuration not stated), the “activity change, negative = inhibition” value was inactive: -13.1%.
With `CC(C)N(C(=O)Nc1ccc2nsnc2c1)C(C)C` the Potency was inconclusive: 70.8 µM [inhibitor, single point].
For `C=Cc1c(C)c2cc3[nH]c(cc4nc(cc5nc(cc1[nH]2)C(C)=C5CCC(=O)O)C(CCC(=O)O)=C4C)c(C)c3C=C`, the Potency was active: 11.2 µM and active: 35.5 µM.
With `COc1ccc(C(=O)/C=C/c2ccsc2)cc1CSCC(=O)O` the Potency was inconclusive: 39.8 µM [inhibitor, partial curve].
In the case of `O=C(NNC(=O)c1cc(O)c(O)c(O)c1)NC1CCCCC1`, the “activity change, negative = inhibition” value is reported as inactive: -8.74% [at 57.1 µM].
`O=C(Nc1ccc(N2CCOCC2)cc1)C1CC(=O)N(c2ccc(Cl)cc2)C1` (configuration not stated) was tested, and the Potency was inconclusive: 39.8 µM [inhibitor, single point].
`CC1C/C(=C/c2ccncc2)C(=O)/C(=C/c2ccncc2)C1` (configuration not stated) was tested, and the Potency was inconclusive: 50.1 µM [inhibitor, partial curve].
With `Cc1cc(N2CCCC2)ccc1/C=C1/C(=O)N(C)C(=S)N1C` the Potency was inconclusive: 100 µM [inhibitor, single point].
For `CC(=O)Nc1ccc(N(C(=O)c2ccco2)C(C(=O)NC2CCCCC2)c2ccccc2)cc1` (configuration not stated), the Potency was inconclusive: 28.2 µM [inhibitor, single point].
`COc1ccc(C(=O)OCC(=O)c2ccc[nH]2)cc1` was tested, and the “activity change, negative = inhibition” value was inactive: -0.83%.
With `COc1cccc2c1-c1c(O)cccc1C2=O` the “activity change, negative = inhibition” value was inactive: -14.4%.
In the case of `COC(=O)c1ccccc1NC(=O)CCS(=O)(=O)c1ccc(Br)cc1`, the Potency is reported as active: 25.1 µM.
For `CCOC(=O)C1=C(Cc2ccc(OC)cc2)C(=O)c2ccccc2C1=O`, the Potency was active: 50.1 µM.
With `CCC1CCCCN1S(=O)(=O)c1ccc(NC(=O)c2cccnc2)cc1` (configuration not stated) the Potency was inconclusive: 89.1 µM [inhibitor, single point].
With `CCOC(=O)C1CC2=C(CCCC2=O)N(Cc2ccccc2)C1=O` (configuration not stated) the “activity change, negative = inhibition” value was inactive: 6.8%.
In the case of `Cc1cc(C2=NNC(=NC3CC3)SC2)c(C)n1-c1ccccc1F`, the “activity change, negative = inhibition” value is reported as inactive: 6.33%.
In the case of `Cc1ccc(S(=O)(=O)NN2C(=O)c3ccccc3NC2(C)C)cc1`, the Potency is reported as inconclusive: 39.8 µM [inhibitor, single point].
With `CC1=NN(c2ccccc2)C(=O)/C1=C/C=C/C=C/N(C)C` the Potency was inconclusive: 56.2 µM [inhibitor, partial curve].
`CN(C)c1ccc(N2C(=O)CSC2=S)cc1` was tested, and the Potency was inconclusive: 63.1 µM [inhibitor, partial curve].
For `COc1cc(/C=N/NC(=O)CCN2CCN(C)CC2)cc2c1OCO2`, the Potency was inconclusive: 50.1 µM [inhibitor, partial curve].
For `S=c1[nH]nc(-c2cc(-c3ccccc3)n[nH]2)n1/N=C/c1c(Cl)cccc1Cl`, the Potency was inconclusive: 50.1 µM [inhibitor, partial curve].
In the case of `Cc1ccc(S(=O)(=O)N2[C@@H](c3ccc(C(C)(C)C)cc3)C(C(=O)O)=CC[C@H]2c2cccc(Cl)c2)cc1`, the Potency is reported as active: 70.8 µM.
With `Cc1ccc(C(=O)CSC2=C(C#N)C(c3ccco3)C3=C(CCCC3=O)N2)cc1` (configuration not stated) the Potency was inconclusive: 50.1 µM [inhibitor, partial curve].
`O=C(CSc1nc2ccc(Cl)cc2[nH]1)NCc1ccco1` was tested, and the Potency was inconclusive: 44.7 µM [inhibitor, partial curve].
`CCOC(=O)c1c(Cc2ccc(Cl)cc2)c[nH]c1C` was tested, and the Potency was inconclusive: 56.2 µM [inhibitor, partial curve].
In the case of `Cc1ccc(N(C(=O)CNC(=O)c2ccco2)C(C(=O)NC2CCCC2)c2cccnc2)c(C)c1` (configuration not stated), the “activity change, negative = inhibition” value is reported as inactive: 7.24%.
`CC(Oc1cccc(Cl)c1)C(=O)Nc1cc(Cl)ccc1N1CCOCC1` (configuration not stated) was tested, and the Potency was inconclusive: 79.4 µM [inhibitor, single point].
In the case of `O=C(N/N=C/c1ccccn1)c1sc2ccccc2c1Cl`, the Potency is reported as inconclusive: 70.8 µM [inhibitor, single point].
In the case of `Cc1nc(-c2ccccc2OC(F)(F)F)[nH]c(=O)c1Cl`, the Potency is reported as inconclusive: 3.55 µM [inhibitor, full curve, poor fit].
For `O=C(COC(=O)c1cccc(Br)c1)NCc1ccco1`, the Potency was inconclusive: 56.2 µM [inhibitor, partial curve].
In the case of `O=[N+]([O-])/C=C/c1cn(Cc2ccc(Cl)cc2)c2ccccc12`, the Potency is reported as inconclusive: 25.1 µM [inhibitor, full curve].
In the case of `O=C(CCNC(=O)c1ccccc1Cl)NCCC1=CCCCC1`, the “activity change, negative = inhibition” value is reported as inactive: -4.66%.
In the case of `O=C(CSc1nnc(-c2ccco2)n1CC1CCCO1)c1ccc(F)cc1` (configuration not stated), the Potency is reported as active: 79.4 µM.
With `Cc1ccc(NNS(=O)(=O)c2ccc(C)cc2)cc1` the Potency was inconclusive: 56.2 µM [inhibitor, partial curve, poor fit].
With `COc1ccc(C(=O)NCCCSC)cc1OC1CCN(C(C)C)CC1` the “activity change, negative = inhibition” value was inactive: -2.9%.
`CSc1ccc(/C=C2\C(=N)N3N=C(CC(=O)N4CCOCC4)SC3=NC2=O)cc1` was tested, and the “activity change, negative = inhibition” value was inactive: -3.63% [at 57.1 µM].
For `Oc1ccc(C2Nc3cccc4cccc(c34)N2)c(O)c1`, the Potency was inconclusive: 44.7 µM [inhibitor, partial curve].
